Our source for the binding values is article PMC5052720.

These are yes or no findings as the source states them, for the method shown.

The target in the assay is MjGATase_N109S (Methanocaldococcus jannaschii) (UniProt Q58970). Kind of assay: SEC; analytical Superdex 200 column (1 x 30 cm), 0.5 ml/min, no GdmCl; calibrated with molecular weight standards (12.4-200 kDa); both purified. In general terms: SEC sorts molecules by how far they enter the pores of the column.

B1: MjGATase_N109S (enzyme, UniProt Q58970 1-188)
chain: MIVILDNGGQYVHRIHRSLKYIGVSSKIVPNTTPLEEIESNKEVKGIILSGGPDIEKAKNCIDIALNAKLPILGICLGHQLIALAYGGEVGRAEAEEYALTKVYVDKESDLFKNVPREFNAWASHKDEVKKVPEGFEILAHSDICQVEAMKHKTKPIYGVQFHPEVAHTEYGNEILKNFCKVCGYKFE
Take B1: the binding entry is “no binding”.
